From the supplement of paper PMC8007513
The other results are listed elsewhere or left out. Single values are uncertain, as repeats are few or missing.

These compounds were tested on Saccharomyces cerevisiae BY4743 (assay: growth (OD600) relative to untreated control; higher = less growth inhibition). Settings: compound concentration: 133 uM; 20 h.
Method: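 NMCCC compounds (133 uM, no IPBC) tested alone against Saccharomyces cerevisiae BY4743 in YPD, 96-well plates, starting OD600 ~0.1. Growth was read as OD600 at 20 h and expressed as % of the untreated control. Single pass.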

| SMILES | growth |
| --- | --- |
| CCOC(=O)c1ccc(NC(NC(=O)OC)(c2ccccc2)C(F)(F)F)o1 (stereo not given) | 108% |
| CCC(C)Nc1nc2c(c(=O)[nH]c(=O)n2C)n1CC(O)COc1ccc(C)cc1 (stereo not given) | 80.6% |
| Cc1cc(C(=O)OCC(=O)c2ccc[nH]2)c(C)n1Cc1cccs1 | 98.7% |
| COc1ccc(-c2noc(CC(=O)N(C)c3cc(C)ccc3C)n2)cc1 | 94.2% |
| CCCNC(=O)COC1=CC=C2C(=O)\C(=C(\C)OC2=C1)C3=CC=C(OC)C(=C3)OC | 104% |
| O=C\1CC(N\C(=N1)N2CCOCC2)C(=O)NC3=CC=CC=C3 (stereo not given) | 112% |
| CC(=O)c1c(C)[nH]c(C(=O)N(Cc2nnc(-c3ccc(Cl)cc3)o2)C(C)C)c1C | 109% |
| NC(=O)c1cc(Cl)ccc1OCC(=O)Nc1ccccc1Cc1ccccc1 | 94.9% |
| CC(=O)NC1C(=O)N(CCS(=O)(=O)c2ccccc2)c2ccc(F)cc21 (stereo not given) | 107% |
| COCCn1c(N2CCN(C)CC2)nc2c1c(=O)n(C)c(=O)n2C | 95.2% |
| Cc1cc(NS(=O)(=O)c2c(C)nn(C)c2Cl)ccc1N1CCCC1=O | 108% |
| CN1C(=O)N(C)\C(=C(C#N)/C1=O)OC2=CC=CC3=C2OC(C)(C)C3 | 117% |
| CCc1ccc(CN2C(=O)CN(S(C)(=O)=O)CC2(C)C(=O)NC2CCCC2)cc1 (stereo not given) | 86.7% |
| COc1ccccc1N(CCC(N)=O)C(=O)C1COc2ccccc2O1 (stereo not given) | 104% |
| NC(=O)c1ccc(CSc2nncn2CCc2cccs2)cc1 | 104% |

A run of entries from the list above, as a working copy:

| SMILES | growth |
| --- | --- |
| Cc1cc(NS(=O)(=O)c2c(C)nn(C)c2Cl)ccc1N1CCCC1=O | 108% |
| CN1C(=O)N(C)\C(=C(C#N)/C1=O)OC2=CC=CC3=C2OC(C)(C)C3 | 117% |
